Measurements reported in publication PMC8556303.
These are yes or no findings as the source states them, for the method shown. In cells and extracts the contact can be indirect. Some binding calls cover weakened binding; strength is not graded here.

Molecular target: T1, AnnexinA7 (human (endogenous in Huh-7 and Hep3B)) (UniProt P20073)
T1 sequence: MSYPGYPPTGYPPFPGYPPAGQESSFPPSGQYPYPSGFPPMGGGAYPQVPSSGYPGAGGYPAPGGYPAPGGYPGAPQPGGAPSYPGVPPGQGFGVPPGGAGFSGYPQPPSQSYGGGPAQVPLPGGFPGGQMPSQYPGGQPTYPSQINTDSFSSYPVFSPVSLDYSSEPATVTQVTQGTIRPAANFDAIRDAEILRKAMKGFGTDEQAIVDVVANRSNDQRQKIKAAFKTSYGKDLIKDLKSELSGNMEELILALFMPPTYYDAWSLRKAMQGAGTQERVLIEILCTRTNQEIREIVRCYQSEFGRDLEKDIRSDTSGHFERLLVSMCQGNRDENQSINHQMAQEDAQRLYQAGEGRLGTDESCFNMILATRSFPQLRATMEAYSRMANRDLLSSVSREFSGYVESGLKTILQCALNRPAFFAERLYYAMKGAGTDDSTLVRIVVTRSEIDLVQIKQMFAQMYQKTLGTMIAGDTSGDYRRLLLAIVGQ
Test: co-IP; lysates of Huh-7 and Hep3B cells (IP lysis buffer) incubated with primary antibodies overnight at 4 °C, protein A/G agarose beads, eluates immunoblotted; which antibody precipitated is not told

binding: binds
B1: Soluble Resistance-related Calcium-binding protein (Sorcin) (protein, UniProt P30626 1-198)
chain: MAYPGHPGAGGGYYPGGYGGAPGGPAFPGQTQDPLYGYFAAVAGQDGQIDADELQRCLTQSGIAGGYKPFNLETCRLMVSMLDRDMSGTMGFNEFKELWAVLNGWRQHFISFDTDRSGTVDPQELQKALTTMGFRLSPQAVNSIAKRYSTNGKITFDDYIACCVKLRALTDSFRRRDTAQQGVVNFPYDDFIQCVMSV
